The record followed here is PMC4423211 (2015).

These are yes or no findings as the source states them, for the method shown. For some assays here: Binding calls can cover weak binding; strength is not graded here. Tags and fused reporters may be left off the sequences shown.

Test [1] addresses T1, IL1RAPL1-ECD-His6, wild type (mouse) (UniProt P59823).
T1 sequence: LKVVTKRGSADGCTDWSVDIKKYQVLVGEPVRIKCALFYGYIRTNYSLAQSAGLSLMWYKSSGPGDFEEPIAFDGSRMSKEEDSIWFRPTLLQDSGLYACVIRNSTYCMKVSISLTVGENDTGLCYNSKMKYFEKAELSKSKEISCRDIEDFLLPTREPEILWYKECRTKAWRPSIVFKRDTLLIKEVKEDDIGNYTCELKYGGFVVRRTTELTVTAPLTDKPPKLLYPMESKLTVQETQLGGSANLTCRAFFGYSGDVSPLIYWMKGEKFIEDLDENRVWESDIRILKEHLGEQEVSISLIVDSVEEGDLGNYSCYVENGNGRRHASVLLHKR
Put plainly: SPR; equilibrium; Biacore T200, 25 °C, 10 mM Hepes (pH 7.9), 150 mM NaCl, 0.05% Tween-20; IL1RAPL1-ECD-His6 amine-coupled on a CM5 chip (about 2,000 RU); PTPδ Ig1–Fn1 variants or mutants injected as analytes, 15.6 to 4,000 nM; both purified.

Test [2] addresses T2, IL-1RAcP-ECD-Fc, wild type (mouse) (UniProt Q61730).
T2 sequence: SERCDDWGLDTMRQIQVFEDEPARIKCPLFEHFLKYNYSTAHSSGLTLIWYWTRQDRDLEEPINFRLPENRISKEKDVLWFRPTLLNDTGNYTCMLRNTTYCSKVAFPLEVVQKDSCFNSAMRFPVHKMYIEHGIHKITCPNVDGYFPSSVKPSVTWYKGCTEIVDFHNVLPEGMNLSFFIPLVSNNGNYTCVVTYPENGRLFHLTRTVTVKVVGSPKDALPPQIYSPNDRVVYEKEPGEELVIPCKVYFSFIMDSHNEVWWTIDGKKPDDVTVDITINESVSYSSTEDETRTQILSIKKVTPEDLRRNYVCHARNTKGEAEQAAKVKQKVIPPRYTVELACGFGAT
Put plainly: SPR; equilibrium; Biacore T200, 25 °C, 10 mM Hepes (pH 7.9), 150 mM NaCl, 0.05% Tween-20; IL-1RAcP-ECD-Fc captured (about 700 RU) by anti-Fc antibodies immobilised on a CM5 chip; PTPδ Ig1–Fn1 variants or mutants injected as analytes, 15.6 to 4,000 nM; both purified.

In test [3] the target is T1, IL1RAPL1-ECD-His6, wild type (mouse). Put plainly: crystal structure; sitting drop vapour diffusion at 20 °C; the two proteins mixed at a molar ratio of 1:1 to about 6 g/l before crystallisation; both purified.
The target of test [4] is T2, IL-1RAcP-ECD-Fc, wild type (mouse). Put plainly: pull-down; purified IL-1RAcP-Fc or IL1RAPL1-Fc mixed with serially deleted PTPδ proteins at 1:1 molar ratio, immobilised on Protein G Sepharose beads, washed with PBS, eluted with SDS sample buffer, SDS-PAGE; both purified.
The target in test [5] is T3, IL1RAPL1-Fc (C-terminally Fc-tagged IL1RAPL1-ECD) (mouse) (UniProt P59823).
T3 sequence: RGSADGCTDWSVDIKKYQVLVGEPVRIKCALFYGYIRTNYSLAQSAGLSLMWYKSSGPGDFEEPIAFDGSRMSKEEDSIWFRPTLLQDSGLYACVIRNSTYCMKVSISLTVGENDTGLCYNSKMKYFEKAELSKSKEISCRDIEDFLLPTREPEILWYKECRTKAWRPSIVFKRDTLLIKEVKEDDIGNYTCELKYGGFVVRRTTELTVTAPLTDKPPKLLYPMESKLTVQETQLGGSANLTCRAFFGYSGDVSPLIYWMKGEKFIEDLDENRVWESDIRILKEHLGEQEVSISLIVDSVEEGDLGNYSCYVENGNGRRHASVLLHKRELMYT
The test is described as above.

Test [6] concerns the target T4, IL-1RAcP-ECD (His6-tagged, for crystallography) (mouse) (UniProt Q61730).
T4 sequence: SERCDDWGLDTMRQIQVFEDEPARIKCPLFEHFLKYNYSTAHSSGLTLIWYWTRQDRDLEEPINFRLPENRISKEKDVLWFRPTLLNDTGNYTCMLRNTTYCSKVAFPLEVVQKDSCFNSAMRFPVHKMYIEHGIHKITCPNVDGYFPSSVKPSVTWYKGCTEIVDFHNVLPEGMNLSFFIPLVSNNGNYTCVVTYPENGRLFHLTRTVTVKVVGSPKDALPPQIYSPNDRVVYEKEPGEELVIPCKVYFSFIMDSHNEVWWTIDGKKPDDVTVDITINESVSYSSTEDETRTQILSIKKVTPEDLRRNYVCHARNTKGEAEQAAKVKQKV
Put plainly: crystal structure; sitting drop vapour diffusion at 20 °C; the two proteins mixed at a molar ratio of 1:1 to about 6 g/l before crystallisation; both purified.

As for “PTPδ Ig1–Fn1 splicing variant meA3/− (mouse) (domain or fragment)”, the binding entry in test [1] was “no binding (tested: analyte 15.6 to 4,000 nM)”. Turning to “PTPδ Ig1–Fn1 splicing variant −/+ (no meA, with meB) (mouse) (domain or fragment)”, the binding entry in test [1] is recorded as “no binding (tested: analyte 15.6 to 4,000 nM)”. Regarding “PTPδ Ig1–Fn1 Y273A (mouse) (domain or fragment)”, in test [2], the binding result was “no binding (tested: analyte 15.6 to 4,000 nM)”. Consider “PTPδ Ig1–Fn1 splicing variant meA3/+ (mouse) (domain or fragment)”, for which the binding entry in test [1] is “no binding (tested: analyte 15.6 to 4,000 nM)”.

With “PTPδ-ECD (full-length extracellular domain) (mouse) (domain or fragment)”, the binding entry in test [3] is “binds”. For the substance “PTPδ Ig1–Ig2 (mouse) (domain or fragment)”, the binding result in test [3] is on record as “binds”; in test [4], “no binding”; in test [5] it was “binds”.

For the substance “PTPδ Ig1–Fn2 (mouse) (domain or fragment)”, the binding result in test [6] and in test [4] was “binds” throughout. As for “PTPδ Ig1–Fn1 splicing variant meA6/− (mouse) (domain or fragment)”, the binding entry in test [1] is given as “no binding (tested: analyte 15.6 to 4,000 nM)”.
